Assay: in vitro
Conditions: human, s9

Compound: O=C(c1cccc(O)c1)c1ccc(-c2cccc(NS(=O)(=O)c3ccccc3)c2)s1
- half-life: < 5 min
